Among the data in PubChem BioAssay AID504375 (National Center for Advancing Translational Sciences (NCATS), 2011) are activity change, negative = inhibition values, retold here.

Protein sequences, listed by entry. Tags and fused reporters are not part of them.
UniProt Q01196, whole entry, looked up: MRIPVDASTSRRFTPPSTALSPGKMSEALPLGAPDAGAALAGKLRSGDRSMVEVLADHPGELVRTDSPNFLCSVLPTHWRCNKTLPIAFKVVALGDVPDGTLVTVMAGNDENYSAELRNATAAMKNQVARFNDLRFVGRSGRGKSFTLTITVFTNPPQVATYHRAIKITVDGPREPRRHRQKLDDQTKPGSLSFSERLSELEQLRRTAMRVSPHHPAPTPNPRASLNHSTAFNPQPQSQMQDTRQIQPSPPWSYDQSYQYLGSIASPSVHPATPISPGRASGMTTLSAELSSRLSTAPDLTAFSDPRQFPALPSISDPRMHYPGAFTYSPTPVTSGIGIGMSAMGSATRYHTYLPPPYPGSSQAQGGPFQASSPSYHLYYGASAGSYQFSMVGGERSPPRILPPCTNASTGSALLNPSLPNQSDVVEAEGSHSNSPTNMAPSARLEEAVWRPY
UniProt Q13951, whole entry, looked up: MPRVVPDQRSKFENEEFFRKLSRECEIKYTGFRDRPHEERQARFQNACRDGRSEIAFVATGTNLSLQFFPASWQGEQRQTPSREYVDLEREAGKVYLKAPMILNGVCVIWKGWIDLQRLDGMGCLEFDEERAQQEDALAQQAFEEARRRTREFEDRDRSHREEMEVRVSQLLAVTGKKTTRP

Screen size: about 1,600 compounds; about 25 (2%) were called active. Not shown: some 7% with an inconclusive outcome. Calls come from the whole dose curve; as a rule, active = well fitted inhibition curve with a large enough effect; inconclusive = small, poorly fitted or top-dose-only effect, or effect the other way; inactive = no such curve, though single readings can be large or run the other way. The list shows a part of the results.
% is set by controls: 0 for no effect and ±100 for the full control effect.

This test addresses Runt-related transcription factor 1 (Homo sapiens) + Core-binding factor subunit beta (Homo sapiens) (UniProt Q01196+Q13951). In words: qHTS Assay for Compounds Blocking the Interaction Between CBF-beta and RUNX1 for the Treatment of Acute Myeloid Leukemia: Hit Validation with Orthogonal Assay. The conditions noted are these: CBFbeta-RUNX1 binding orthogonal assay, biochemical; at 41 µM (top of the series) unless noted. From the text: NIH Chemical Genomics Center [NCGC]
NIH Molecular Libraries Probe Production centers Network [MLPCN]
Assay Submitter (PI): Paul Liu
Core Binding Factor (CBF) abnormalities are associated with 20-25% of all acute myeloid leukemias (AML), of which 5-10% are further sub classified as acute myelomonocytic leukemia with eosinophilia, also known as M4Eo in the FAB classification scheme. This subtype of leukemia is usually associated with chromosome 16 inversion (p13:q22). Chromosome 16 inversion results in formation of the fusion oncogene CBFB-MYH11, which encodes the fusion protein CBF-beta-SMMHC.
It has been hypothesized that the interference of CBF-beta and RUNX1 binding could have therapeutic implications for patients with CBF mediated leukemias. We developed a CBF-beta and RUNX1 binding assay in AlphaScreenTM format and optimized it for high throughput screening to search for inhibitors. The goal of this project is to screen MLPCN's compound collection (MLSMR) for identifying the inhibitors of the interaction between CBF-beta and RUNX1 proteins as research probes. If these probes work well in the animal models, the ultimate goal of this project is to development a new drug treatment for this disease.
This assay can not be used to assess how apparent inhibitors interfere with protein binding, and whether inhibitors specifically bind to either protein. Disruption of this protein-protein interaction, through any mechanism, is the intended target activity.
The present data set was run to confirm the activity of hits from the primary screen using an orthogonal assay technology for measuring protein-protein interaction disruption.
A TR-FRET (time resolved fluorescence resonance energy transfer) assay was performed using the same assay buffer, protein concentrations and incubation times as described previously in the AlphaScreen assay, except that terbium (Tb+) labeled anti-his-antibody and XL665 linked streptavidin were used to capture the binding signal. The Tb+ labeled anti-his-antibody captures His(6)-CBF and XL665 linked streptavidin binds to biotin-RUNX1. The binding of RUNX1 to CBFbrings Tb+ and XL665 to proximity resulting in a TR-FRET signal. Briefly, in a white 384-well plate, 10 µl/well of mixture of biotin-RUNX1 and His(6)-CBFwere incubated with 10 µl/well buffer (positive control) or 10 µl/well compounds (negative control) for 20 min followed by an addition of 10 µl/well of Tb+ labeled anti-his(6)-antibody and XL665 linked streptavidin. After 90 min of incubation in the dark, the assay plate was measured in the Envision plate reader using TR-FRET detection mode. For the 1536-well plate format, 3 µl/well mixture of biotin-RUNX1 and His(6)-CBF (30 nM per protein) was incubated with 23 nl/well compound (dissolved in 100% DMSO) or the equivalent DMSO concentration (positive control) for 30 min followed by the addition of 1 µl/well of 0.44 ng Tb+ labeled anti-his(6)-antibody and 5 nM streptavodin-XL665. After 90 min of incubation, the assay plate was measured in the Envision plate reader.
The TR-FRET assay for detecting interaction between HIV-I Tat and […] was similarly performed with the recombinant full-length HIV-I Tat CLADE B and HIV-I Tat Biotin conjugated proteins supplied by Diatheva (Fano, Italy). Briefly, the His-CBF and Biotin-RUNX1 complex at a working concentration of 83.3 nM per protein were pre-incubated in assay buffer for 10 minutes on ice. Then HIV-I Tat or unlabeled CBF were added to reach final concentrations (Supplementary Figure 4b) and incubated for 5 minutes. Finally anti-His antibody and streptavidin-XL665 at a final concentration of 2.2 ng and 5 nM, respectively, were added to the plate, which was incubated for 1 hr prior to reading on the PerkinElmer Envision plate reader.
Keywords: MLSMR, MLPCN, NIH Roadmap, qHTS, NCGC, Core binding factor, CBF, CBF-beta, Acute myeloid leukemia
With `O=c1[nH]c(=S)[nH]c(O)c1/C=N/N1CCOCC1`, the activity change, negative = inhibition was inactive: -7.93%.

For `CC(=O)CC(c1ccccc1[N+](=O)[O-])c1c(O)c2ccccc2oc1=O` (configuration not stated), the activity change, negative = inhibition was inactive: -0.954%.

With `CCCCc1ccc(C(=O)O)nc1`, the activity change, negative = inhibition was inactive: -1.88% [at 82.4 µM].

`CNC(=O)O/N=C(\C)Cc1nnn(-c2cc(C)on2)n1`: the activity change, negative = inhibition is inactive: 1.39%.

Turning to `CC1CN=C(Nc2ccc(F)c(Cl)c2)S1` (configuration not stated), the activity change, negative = inhibition is inactive: 6.88%.

In the case of `O=c1c2ccccc2nc(Cc2cccc([N+](=O)[O-])c2)n1-c1ccc(O)cc1`, the activity change, negative = inhibition was inactive: 8.14%.

As for `O=C(O)COc1ccccc1/C=C1\C(=O)NC(=O)N(CCC2=CCCCC2)C1=O`, the activity change, negative = inhibition was inactive: 2.04%.

As for `Cc1ccc(-n2c(O)c(C=N)c(=O)n(-c3ccc(C)cc3)c2=O)cc1`, the activity change, negative = inhibition was inactive: 24.2%.

With `Cc1cc(OC(=O)N(C)C)nc(-c2ccc(C)c(Cl)c2)n1`, the activity change, negative = inhibition is inactive: 7.35%.

With `CN1C(=O)C(=Cc2cccnc2)C(=O)N(C)C1=O`, the activity change, negative = inhibition is inactive: -0.869%.

Consider `COc1cc(CN=Cc2c(O)n(C(C)(C)C)c(=O)[nH]c2=O)cc(OC)c1`, for which the activity change, negative = inhibition was inactive: 4.78%.

Consider `CCC(C)n1c(O)c(C=NCCc2ccccc2)c(=O)[nH]c1=S` (configuration not stated), for which the activity change, negative = inhibition was inactive: -10.2%.

As for `CCC(=NCc1cc(OC)cc(OC)c1)c1c(O)n(C2CCCCC2)c(=O)[nH]c1=O`, the activity change, negative = inhibition was inactive: 0.905%.

For the compound `CNC(=O)Oc1ccc(N(C)C)cc1C(C)C`, the activity change, negative = inhibition is inactive: -13.7%.

For the compound `CCC(=NCc1cccnc1)c1c(O)n(-c2ccccc2C)c(=O)[nH]c1=O`, the activity change, negative = inhibition is inactive: -2.88%.

Regarding `O=C1/C(=C\c2cccnc2)N2CCC1CC2`, the activity change, negative = inhibition was inactive: -8.53%.

As to `CCC(=Nc1cccc(C(F)(F)F)c1)c1c(O)n(C)c(=O)n(C)c1=O`, the activity change, negative = inhibition is inactive: 5.85%.

`Cn1c(O)c(C=NCCN2CCN(C(=O)Nc3ccccc3)CC2)c(=O)n(C)c1=O`: the activity change, negative = inhibition is inactive: -3.66%.

Take `C[C@H]1CC[C@H]2NCCN[C@H]2C1`: the activity change, negative = inhibition was inactive: -18.8%.

For the compound `Cn1c(O)c(C(=Nc2ccc(F)cc2)c2ccccc2)c(=O)n(C)c1=O`, the activity change, negative = inhibition was inactive: 15.3%.

As for `CCCC(=O)c1cc(CP(=O)(OCC)OCC)oc1C`, the activity change, negative = inhibition was inactive: -5.04%.

In the case of `CCCC(=O)c1ccc(CP(=O)(OCC)OCC)o1`, the activity change, negative = inhibition was inactive: 8.34%.

Consider `CCC(=NCc1ccco1)c1c(O)n(-c2ccccc2C)c(=O)[nH]c1=O`, for which the activity change, negative = inhibition is inactive: 11%.

Take `CCOC(=O)C(O)(c1ccc(NC(=O)c2ccc(Cl)c(Cl)c2)cc1)C(F)(F)F` (configuration not stated): the activity change, negative = inhibition was inactive: 3.11%.

`COCc1cc(OC(=O)N(C)C)nc(-c2ccccc2)n1`: the activity change, negative = inhibition was inactive: -2.72%.

As to `CC(C)[C@@]1(NC(=O)[C@H]2CC3c4cccc5[nH]cc(c45)C[C@H]3N(C)C2)O[C@@]2(O)C3CCCN3C(=O)[C@@H](Cc3ccccc3)N2C1=O` (some centres not stated), the activity change, negative = inhibition was inactive: 9.43%.

On to `CCN1CCN(c2nc([N+](=O)[O-])nn2C)CC1`, for which the activity change, negative = inhibition was inactive: 39.9%.

`CCn1c(O)c(C=NCCN2CCOCC2)c(=O)[nH]c1=S`: the activity change, negative = inhibition is inactive: -1.84%.

In the case of `CCC1(C(=O)c2ccc(C)cc2)C2c3ccccc3OC(=O)C21C(=O)O` (configuration not stated), the activity change, negative = inhibition was inactive: -8.33%.

As to `CC(C)OP(=O)(Oc1ccc(C(O)C(Cl)(Cl)Cl)cc1)OC(C)C` (configuration not stated), the activity change, negative = inhibition was inactive: 7.68%.

In the case of `O=c1[nH]c(=S)n(-c2ccc(F)cc2)c(O)c1/C=N/N1CCOCC1`, the activity change, negative = inhibition is inactive: 10.3%.

In the case of `CCCCn1c(O)c(C(CC)=NCCCn2ccnc2)c(=O)[nH]c1=O`, the activity change, negative = inhibition is inactive: 11.3%.

`CCOC(=O)[C@]1(C#N)[C@@H]2C=CC(C(N)=O)=CN2[C@@H](C(N)=O)[C@@H]1c1ccc(F)cc1`: the activity change, negative = inhibition is inactive: 14.7%.

Consider `CC(C)(C)n1cc(C(=O)c2ccccc2)cc1-c1ccccc1`, for which the activity change, negative = inhibition was inactive: -1.88%.

For the compound `CCCCn1c(O)c(/C=C2/C=CC=N2)c(=O)[nH]c1=O`, the activity change, negative = inhibition was inactive: 29.1%.

Consider `Cc1cc(C(=O)Nc2ccccc2)nn1C(C)(C)C`, for which the activity change, negative = inhibition was inactive: 11%.

Take `Cc1nc(SCc2c(Cl)cccc2Cl)nc(OC(=O)N(C)C)c1C`: the activity change, negative = inhibition was inactive: 1.97%.

`CC(=O)Nc1ccc([As](=O)(O)c2ccc([N+](=O)[O-])cc2)cc1`: the activity change, negative = inhibition was inactive: 27.5%.

Take `CCCCCCn1c(O)c(/C=N/N2CCCCCC2)c(=O)[nH]c1=O`: the activity change, negative = inhibition was inactive: 5.46%.

For `Cc1cc(OC(=O)N(C)C)nc2c1c(C)nn2C`, the activity change, negative = inhibition is inactive: -8.88%.

Turning to `CCCCn1c(O)c(/C=N/N2CCOCC2)c(=O)[nH]c1=S`, the activity change, negative = inhibition was inactive: -13.6%.

In the case of `COc1cccc(C(=O)N2CCC3(CC2)OCCO3)c1`, the activity change, negative = inhibition is inactive: -2.62%.

For `CCN1CCc2ccccc2C1`, the activity change, negative = inhibition is inactive: -11.9%.

For the compound `CCCCCCn1c(O)c(C=Nc2ccccc2N2CCOCC2)c(=O)[nH]c1=S`, the activity change, negative = inhibition was inactive: 9.02%.

Consider `Cc1onc(-c2c(Cl)cccc2Cl)c1C(=O)Nc1ccc2c(C(F)(F)F)cc(=O)oc2c1`, for which the activity change, negative = inhibition is inactive: 1.55%.

In the case of `COCc1cc(OC(=O)N(C)C)nc(-c2ccc(C)c(Cl)c2)n1`, the activity change, negative = inhibition is inactive: -5.63%.

For the compound `COC1C(OC(=O)c2ccc(C)[nH]2)C(O)C(Oc2ccc3c(O)c(NC(=O)c4ccc(O)c(CC=C(C)C)c4)c(=O)oc3c2Cl)OC1(C)C` (configuration not stated), the activity change, negative = inhibition is inactive: 4.43%.

On to `C=CCn1c(O)c(C(C)=Nc2ccc3c(c2)CCC3)c(=O)[nH]c1=O`, for which the activity change, negative = inhibition was inactive: 1.26%.

Turning to `O=c1[nH]c(=S)[nH]c(O)c1N=Nc1cccc(S(=O)(=O)N2CCOCC2)c1`, the activity change, negative = inhibition was inactive: 56%.

Consider `Cn1c(O)c(C(=Nc2ccc(F)cc2)c2ccccc2Cl)c(=O)n(C)c1=O`, for which the activity change, negative = inhibition was inactive: -7.4%.

Turning to `Cc1cccc(N2C(=O)NC(=O)/C(=C\c3ccc(N4CCOCC4)cc3)C2=O)c1`, the activity change, negative = inhibition was inactive: 11.1%.

Consider `O=c1[nH]c(=S)n(-c2ccccc2)c(O)c1C=NCc1ccccn1`, for which the activity change, negative = inhibition was inactive: 1.8%.

For `CCOP(=O)(Cc1cc(C(C)=O)c(C)o1)OCC`, the activity change, negative = inhibition was inactive: -5.54%.

Take `CN1CCN(c2nc(N)cc(=O)[nH]2)CC1`: the activity change, negative = inhibition is inactive: -9.35%.

As to `C=CCn1c(O)c(C(C)=NCC2CCCO2)c(=O)[nH]c1=O` (configuration not stated), the activity change, negative = inhibition was inactive: -9.91%.

In the case of `N=Cc1c(O)n(-c2ccccc2)c(=O)n(-c2ccccc2)c1=O`, the activity change, negative = inhibition is inactive: -0.232%.

Take `COP(=O)(Cc1ccc(C#N)o1)OC`: the activity change, negative = inhibition was inactive: -13.1%.
